Our source for the binding values is article doi:10.1101/2022.06.20.496817.

The assay concerns the target proteolipid protein (PLP) (mouse (endogenous in forebrain)) (UniProt P60202). Put plainly: non-reducing SDS-PAGE and western blot. For orientation: In western blotting, separated proteins are transferred to a membrane and probed.

No constants are given. Whether binding was seen depends on the method and setting. Some results given as binding are weak or reduced against the parent protein; the word gives no strength.

B1: proteolipid protein (PLP) (protein, UniProt P60202 1-277)
chain: MGLLECCARCLVGAPFASLVATGLCFFGVALFCGCGHEALTGTEKLIETYFSKNYQDYEYLINVIHAFQYVIYGTASFFFLYGALLLAEGFYTTGAVRQIFGDYKTTICGKGLSATVTGGQKGRGSRGQHQAHSLERVCHCLGKWLGHPDKFVGITYALTVVWLLVFACSAVPVYIYFNTWTTCQSIAFPSKTSASIGSLCADARMYGVLPWNAFPGKVCGSNLLSICKTAEFQMTFHLFIAAFVGAAATLVSLLTFMIAATYNFAVLKLMGRGTKF
B1: the binding result is reported as “binds”.
